# Laboratory results reported in the supplement of paper PMC4604168 (melanoma cell lines).
# The list shows a part of the results. Single values are uncertain, as repeats are few or missing.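 The apoptosis fraction was the count of cleaved-PARP antibody-stained nuclei relative to all DNA-stained nuclei, imaged in 1,536-well plates. Screening doses were set so most cells survived, and baseline and induced cleaved-PARP levels vary greatly across cell lines.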
# What was measured:
# Assay in all cases: cleaved PARP positive nuclei fraction relative to DMSO control; melanoma cells; higher = more apoptosis
# Conditions in all cases: library dose: low library concentration; 72 h
# COLO792 = system: COLO792
# COLO800 = system: COLO800
# IPC-298 = system: IPC-298
# IST-MEL1 = system: IST-MEL1
# LB2518-MEL = system: LB2518-MEL
# LOXIMVI = system: LOXIMVI
# MZ2-MEL = system: MZ2-MEL
# MeWo = system: MeWo
# RPMI7951 = system: RPMI7951
# RVH-421 = system: RVH-421
# SkMel28 = system: SkMel28
# SkMel2 = system: SkMel2
# SkMel30 = system: SkMel30
# SkMel5 = system: SkMel5
# UACC257 = system: UACC257
# UACC62 = system: UACC62
# COLO829 = system: COLO829
# G361 = system: G361
# MEL-HO = system: MEL-HO
SMILES,cleaved PARP positive nuclei fraction (COLO792) [%],cleaved PARP positive nuclei fraction (COLO800) [%],cleaved PARP positive nuclei fraction (IPC-298) [%],cleaved PARP positive nuclei fraction (IST-MEL1) [%],cleaved PARP positive nuclei fraction (LB2518-MEL) [%],cleaved PARP positive nuclei fraction (LOXIMVI) [%],cleaved PARP positive nuclei fraction (MZ2-MEL) [%],cleaved PARP positive nuclei fraction (MeWo) [%],cleaved PARP positive nuclei fraction (RPMI7951) [%],cleaved PARP positive nuclei fraction (RVH-421) [%],cleaved PARP positive nuclei fraction (SkMel28) [%],cleaved PARP positive nuclei fraction (SkMel2) [%],cleaved PARP positive nuclei fraction (SkMel30) [%],cleaved PARP positive nuclei fraction (SkMel5) [%],cleaved PARP positive nuclei fraction (UACC257) [%],cleaved PARP positive nuclei fraction (UACC62) [%],cleaved PARP positive nuclei fraction (COLO829) [%],cleaved PARP positive nuclei fraction (G361) [%],cleaved PARP positive nuclei fraction (MEL-HO) [%]
"COc1cc([C@@H]2c3cc4c(cc3[C@@H](O[C@@H]3O[C@@H]5CO[C@@H](C)O[C@H]5[C@H](O)[C@H]3O)[C@H]3COC(=O)[C@H]23)OCO4)cc(OC)c1O [etoposide] + Oc1cc(-c2nc(-c3ccccc3)[nH]c2-c2ccncc2)ccc1Cl [L779450] (first compound 0.02 µM, partner dose 0.2 µM)",191,171,106,116,136,167,147,39.1,53.8,333,121,38.3,31.7,65.3,117,152,,,
"O=C(/C=C/c1cccnc1)NCCCCC1CCN(C(=O)c2ccccc2)CC1 + NCC(=O)Nc1ccc(-n2nc(C(F)(F)F)cc2-c2ccc3c(ccc4ccccc43)c2)cc1 [OSU03012] (first compound 0.01 µM, partner dose 1 µM)",831,230,300,89.1,,27.6,,145,103,49.1,190,,210,103,71.6,82.3,261,1700,75.4
"COc1cc([C@@H]2c3cc4c(cc3[C@@H](O[C@@H]3O[C@@H]5CO[C@@H](C)O[C@H]5[C@H](O)[C@H]3O)[C@H]3COC(=O)[C@H]23)OCO4)cc(OC)c1O [etoposide] + O=C(Nc1ccccc1)c1cc([N+](=O)[O-])ccc1Cl [GW9662] (first compound 0.02 µM, partner dose 2 µM)",57,127,51.1,143,77,131,120,243,54.3,64.5,186,90.5,28.9,74.3,68.4,183,63.3,,
"O=C(Nc1cc(C(F)(F)F)cc(C(F)(F)F)c1)c1cc(Cl)ccc1O + COc1ccc2c(c1)CCC1C2CCC2(C)C(NCCCCCCN3C(=O)C=CC3=O)CCC12 [U73122] (first compound 0.016 µM, partner dose 0.4 µM)",60.4,124,45.5,48.7,,100,,71.5,95.8,17.4,131,57.7,35.3,75.8,107,111,414,39.3,
"CCCCCCCCCCCCCCCCCCOP(=O)([O-])OC1CC[N+](C)(C)CC1 [Perifosine] + Cn1cncc1[C@@](N)(c1ccc(Cl)cc1)c1ccc2c(c1)c(-c1cccc(Cl)c1)cc(=O)n2C [tipifarnib] (first compound 0.4 µM, partner dose 0.01 µM)",85.6,37.7,102,140,,136,,57.8,134,112,38.5,264,73.3,120,136,87.5,96.5,167,73.5
"O=C(/C=C/c1cccnc1)NCCCCC1CCN(C(=O)c2ccccc2)CC1 + CCN(CC)CCCCNc1ncc2cc(-c3cc(OC)cc(OC)c3)c(NC(=O)NC(C)(C)C)nc2n1 [PD173074] (first compound 0.01 µM, partner dose 0.1 µM)",305,150,117,126,,53.4,,83.3,220,60.2,88.9,,48.9,84.7,92,110,268,2080,
"Cc1ccc(Nc2nccc(N(C)c3ccc4c(C)n(C)nc4c3)n2)cc1S(N)(=O)=O [Pazopanib] + CC(C)CCN1c2nc(Nc3cc(F)c(O)c(F)c3)ncc2N(C)C(=O)C1C [BID1870] (first compound 0.4 µM, partner dose 0.2 µM)",81.5,52.2,110,73,,78.6,,27,153,74.4,230,,184,83.6,192,71.9,102,88.2,
"Cc1cc(Nc2cc(N3CCN(C)CC3)nc(Sc3ccc(NC(=O)C4CC4)cc3)n2)n[nH]1 [Tozasertib] + CC(C)CCN1c2nc(Nc3cc(F)c(O)c(F)c3)ncc2N(C)C(=O)C1C [BID1870] (first compound 0.006 µM, partner dose 0.2 µM)",109,115,95.6,132,,61.6,,24.4,64.4,50.1,236,,312,83.9,77.2,88.1,147,185,
"COc1cc([C@@H]2c3cc4c(cc3[C@@H](O[C@@H]3O[C@@H]5CO[C@@H](C)O[C@H]5[C@H](O)[C@H]3O)[C@H]3COC(=O)[C@H]23)OCO4)cc(OC)c1O [etoposide] + COc1ccc2c(c1)CCC1C2CCC2(C)C(NCCCCCCN3C(=O)C=CC3=O)CCC12 [U73122] (first compound 0.02 µM, partner dose 0.4 µM)",104,168,184,74.3,160,148,98,63.9,69,128,164,90.9,83.9,83.3,,167,,82.2,
